In PMC7819943, “Rice protein-binding microarrays: a tool to detect cis-acting elements near promoter regions in rice” one finds binding signal data, which are given here for 42 sequences.

Protein sequences, listed by entry. Tags and fused reporters are not part of them.
UniProt Q0JBA9, entry or part of it: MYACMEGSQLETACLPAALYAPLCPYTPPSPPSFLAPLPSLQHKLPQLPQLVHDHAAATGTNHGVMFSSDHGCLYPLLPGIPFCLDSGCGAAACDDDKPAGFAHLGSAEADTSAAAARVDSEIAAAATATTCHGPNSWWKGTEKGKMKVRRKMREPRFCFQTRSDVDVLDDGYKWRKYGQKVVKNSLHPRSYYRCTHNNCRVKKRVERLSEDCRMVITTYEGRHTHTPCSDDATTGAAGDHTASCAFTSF

This is one part of the list.

This experiment has as its target OsWRKY34 (Oryza sativa, UniProt Q0JBA9 1-250). Briefly: protein-binding microarray (RPBM); PBS, 2% BSA, 51.3 ng/ul salmon testes DNA, 50 uM zinc acetate, 200 nM TF, 25 C, 1 h; high values mean tight binding. The following applies: protein: recombinant; tags: N-terminal polyhistidine and DsRed monomer fusion (pET32a); label: CyDye5-dUTP incorporated in the synthesized complementary strand; 3' TTTTT single-stranded linker to array surface; dsDNA, one strand shown. In short, it runs like this:
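Using Ni–NTA, transcription factors fused N-terminally to polyhistidine and DsRed were purified after expression in E. coli BL21-CodonPlus. These were incubated at 200 nM with a blocked, double-stranded custom Agilent array for 1 h at 25 °C in a buffer containing 50 µM zinc acetate, and the array was washed. The binding signal is per-feature fluorescence intensity (arbitrary units) on an Axon 4000B scanner.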
Consider “AAATGGGAAGTTTGTTGTGGTTTGGCCGGTTTCTGACGCGCGGAGTCACCTAGTGCAG”, for which the binding signal was 8620 fluorescence intensity (a.u.). For the sequence “CACCAACCCACCACTCCTCGTTCCAATCTCGAATCCTTCGCGGAGTCACCTAGTGCAG”, the binding signal was 8440 fluorescence intensity (a.u.). With “ATACCTCCGTCGATCTTTTGGGCTGATTCCTCCTTCCCCGCGGAGTCACCTAGTGCAG”, the binding signal was 8680 fluorescence intensity (a.u.). To “CATATGCACTAACAAAACCGAGTAGGAGGGTGGGTATTTGCGGAGTCACCTAGTGCAG” belongs 8580 fluorescence intensity (a.u.). With “TCACTTTGCGCGATATCCTACTGCTAAAACTGCGAAGTCACGGAGTCACCTAGTGCAG” the figure was 8950 fluorescence intensity (a.u.); with “CTTTATTGTTGTTTGTTATCATTTGTGTTCTAGATGAAGTCGGAGTCACCTAGTGCAG”, 10900 fluorescence intensity (a.u.). With “CCGCCCTTCTTCGTGCCACCGCCGCCGCCTCTCCGCTTCGCGGAGTCACCTAGTGCAG”, the binding signal is 9850 fluorescence intensity (a.u.).

On to “ACCCTAGGCCAGTATATGCTCCGAAGATCGTCTCTTTGACCGGAGTCACCTAGTGCAG”, for which the binding signal is 10400 fluorescence intensity (a.u.). Turning to “AGTCTTTGGTCCACAGCTTCATGCATCCATCATATCGACACGGAGTCACCTAGTGCAG”, the binding signal is 8260 fluorescence intensity (a.u.). Turning to “AGGGGTGGATGCGCGTGGGCTGGTGGTGGTGGTGGGGATGCGGAGTCACCTAGTGCAG”, the binding signal is 19100 fluorescence intensity (a.u.). To “ACCCTAGCCTAGTTTGCCACGACTTGGTCCCACCTGGCAGCGGAGTCACCTAGTGCAG” belongs 10200 fluorescence intensity (a.u.).

For “ATTGGAGGTGGTCTTCGTGCATCTGCTTTATCTACTTCTCCGGAGTCACCTAGTGCAG”, the binding signal is 11600 fluorescence intensity (a.u.).

As for “CTCCTGACTCCTCCTCGGTTCCTCTTCCTCTCGAGCCCTTCGGAGTCACCTAGTGCAG”, the binding signal was 9950 fluorescence intensity (a.u.). Consider “CCAGCACATCTAACCCAGTCCCAGTTCATATATATATCACCGGAGTCACCTAGTGCAG”, for which the binding signal is 9820 fluorescence intensity (a.u.). To “AGACACATTCACTTTCTACACACAGACACATTTGGTTAATCGGAGTCACCTAGTGCAG” belongs 10800 fluorescence intensity (a.u.); to “TCAAACCTCTATATAGTTTCTCCTCCTGTCCGTCCAAGCACGGAGTCACCTAGTGCAG”, 12000 fluorescence intensity (a.u.); to “CCCTCTCAACCCGAGCCTCGCTCCTCCTCGCGTCGTCGTCCGGAGTCACCTAGTGCAG”, 9770 fluorescence intensity (a.u.). To “AATCAACGACGTCTTGCTGCAGATTTTCTATGTTTTCAGTCGGAGTCACCTAGTGCAG” belongs 10100 fluorescence intensity (a.u.). Consider “GGCCGCTGTCTAGCCACTGACATCGTTTTTGCCGCGCCGCCGGAGTCACCTAGTGCAG”, for which the binding signal was 8100 fluorescence intensity (a.u.).

Consider “GTTGTAGGTTTTTGGTTTTTTTTGTTGTGTGTTCTCCTCTCGGAGTCACCTAGTGCAG”, for which the binding signal was 9640 fluorescence intensity (a.u.). Take “CACCGCCTCTGCTCCCGCGCCGCCGCAGCGGCTCCCTCCTCGGAGTCACCTAGTGCAG”: the binding signal was 8230 fluorescence intensity (a.u.). To “AGATAGTGGTGGTGGTCTGTGCATCGTTGACTTGATCATGCGGAGTCACCTAGTGCAG” belongs 10900 fluorescence intensity (a.u.).

For “ACTTTCTCCGTTTCGTATTATAAGTCCGTTTGATCTTTTTCGGAGTCACCTAGTGCAG”, the binding signal was 8580 fluorescence intensity (a.u.).

As for “CTTTGCTCCAAGCCTACATTATTCACTTTTGGGCCTGTTCCGGAGTCACCTAGTGCAG”, the binding signal is 8900 fluorescence intensity (a.u.). For the sequence “TGATGTGGTGCCTACGTGGCTTGTTTGACTAGGTCTCCGTCGGAGTCACCTAGTGCAG”, the binding signal was 12100 fluorescence intensity (a.u.). As for “TTTTTCGCCGCGCTTTCCTCCGCAGGTTCACAATTCCGACCGGAGTCACCTAGTGCAG”, the binding signal is 8640 fluorescence intensity (a.u.). In the case of “ACACCACACTACCCCGCCCCACGCTATAAATACCAGCTCTCGGAGTCACCTAGTGCAG”, the binding signal is 8870 fluorescence intensity (a.u.). Consider “CACGGTGGCCCTTTGTGTGCCTGGCCATCACTCCCGACCGCGGAGTCACCTAGTGCAG”, for which the binding signal is 9320 fluorescence intensity (a.u.).

“CATTTTGCCTCCCTCATCTCTTGCGTTTGTGTGCCCTCAACGGAGTCACCTAGTGCAG”: the binding signal was 9340 fluorescence intensity (a.u.). On to “GGATGCTTATATTATGTTGGTTGCAGCAAATTTGTTATAACGGAGTCACCTAGTGCAG”, for which the binding signal was 8030 fluorescence intensity (a.u.). For “AAGCCATCATTAGCACATGTCGGTTACTGTAGTACTTATGCGGAGTCACCTAGTGCAG”, the binding signal is 9690 fluorescence intensity (a.u.). Consider “TCTTCACATGCTATTTTGTGTTATTCTTGCCTATAAATGACGGAGTCACCTAGTGCAG”, for which the binding signal was 8310 fluorescence intensity (a.u.). On to “AGGTTTTGATTGAGCCAATGGGGTGGGCAGTTTTTGGTGCCGGAGTCACCTAGTGCAG”, for which the binding signal was 14500 fluorescence intensity (a.u.).

For “CTTTCTCCCATCCGCTGCCTGCCTCCATAGCTAGCCCACTCGGAGTCACCTAGTGCAG”, the binding signal is 8370 fluorescence intensity (a.u.).

Turning to “AGTTACCAAATAACCAAACCCCAAGAGATACGCCGTTGACCGGAGTCACCTAGTGCAG”, the binding signal was 14800 fluorescence intensity (a.u.). Turning to “GTGGTGGAGGTGGTGTCGTCGACGGCATATTTAGACTTGGCGGAGTCACCTAGTGCAG”, the binding signal is 10400 fluorescence intensity (a.u.). “TCAGTTTTTGTTTGCAATGTTTGACCACTCGTCTTATTCACGGAGTCACCTAGTGCAG”: the binding signal is 18500 fluorescence intensity (a.u.). Take “GCCCAGCCTGCCAACCTCACATCCCGTCATCGAGATTCGCCGGAGTCACCTAGTGCAG”: the binding signal is 8720 fluorescence intensity (a.u.). As to “CCCCAAAATTTTTCACCATGTCACATCAAACGTTTGAACACGGAGTCACCTAGTGCAG”, the binding signal was 8490 fluorescence intensity (a.u.). As to “CGAGCACACACACTCACTCCCTGTCTCCTCCTCCTCCTCCCGGAGTCACCTAGTGCAG”, the binding signal is 10600 fluorescence intensity (a.u.). With “TCTACCGGTGTTTGTGTTGCGCGTCCGTGCTCTGGGTGGTCGGAGTCACCTAGTGCAG” the figure was 9060 fluorescence intensity (a.u.).

Turning to “GCAATGTGGTTGTGGATTTTTTTGGTAGGGAGGTGAGATGCGGAGTCACCTAGTGCAG”, the binding signal was 8040 fluorescence intensity (a.u.).
